Results published in patent US6537670B1, “Bis(alkyleneoxybenzophenone) ultraviolet light absorbers” (Cytec Technology Corp., priority 2000, dated 2003).

How the values were obtained:
[1] = Capstock: initial color (YI) of laminated polycarbonate film with 7% additive; settings: 7% in Capstock PC-Lexan 105
[2] = Hydrolytic testing of polycarbonate plaques (water, 120° C., 6 hours); settings: 0.35% in Lexan 121 PC; water at 120° C. for 6 hours; YI before and after

SMILES: O=C(OCCOc1ccc(C(=O)c2ccccc2)c(O)c1)OCCOc1ccc(C(=O)c2ccccc2)c(O)c1 [Compound D, {2-(3′-hydroxy-4′-benzoylphenoxy)ethyl}carbonate]
- YI Value (initial color) [1]: 7.7
- Delta VI Value (hydrolytic testing) [2]: 0.56

SMILES: O=C(c1ccccc1)c1ccc(OCCCCCCOc2ccc(C(=O)c3ccccc3)c(O)c2)cc1O [Compound E, 1,6-bis(3′hydroxy-4′-benzoylphenoxy)hexane]
- Delta VI Value (hydrolytic testing) [2]: 0.93

SMILES: CC(C)(c1ccccc1)c1cc(-n2nc3ccccc3n2)c(O)c(C(C)(C)c2ccccc2)c1 [Compound C, 2-(3′,5′-bis(α,α-dimethylbenzyl)-2′hydroxyphenyl)benzotriazole]
- YI Value (initial color) [1]: 7.1
- Delta VI Value (hydrolytic testing) [2]: 0.36

SMILES: CC(C)(C)CC(C)(C)c1cc(Cc2cc(C(C)(C)CC(C)(C)C)cc(-n3nc4ccccc4n3)c2O)c(O)c(-n2nc3ccccc3n2)c1 [Compound F]
- YI Value (initial color) [1]: 8.6
- Delta VI Value (hydrolytic testing) [2]: 1.26

SMILES: CC(C)(C)CC(C)(C)c1ccc(O)c(-n2nc3ccccc3n2)c1 [Compound A, 2-(2′-hydroxy-5′-(1,1,3,3-tetramethylbutyl)phenyl)benzotriazole]
- YI Value (initial color) [1]: 6.7
